From ChEMBL document CHEMBL3988442, “University of Dundee, Small-Polar-MMV Screening Library” (2021).

Sequences of proteins named here, by UniProt entry; tags and fusion partners are left off. Residues count along the entry.
UniProt P9WFT3, whole entry: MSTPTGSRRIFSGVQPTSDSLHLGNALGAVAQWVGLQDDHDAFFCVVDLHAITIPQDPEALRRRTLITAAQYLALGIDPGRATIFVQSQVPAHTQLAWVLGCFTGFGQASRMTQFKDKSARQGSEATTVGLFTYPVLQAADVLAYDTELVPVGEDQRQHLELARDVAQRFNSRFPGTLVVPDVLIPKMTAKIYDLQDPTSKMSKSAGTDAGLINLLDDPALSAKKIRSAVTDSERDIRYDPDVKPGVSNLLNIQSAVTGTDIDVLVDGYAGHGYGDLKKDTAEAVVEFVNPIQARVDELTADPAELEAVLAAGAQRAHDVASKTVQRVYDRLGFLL
UniProt I6X8D2, whole entry: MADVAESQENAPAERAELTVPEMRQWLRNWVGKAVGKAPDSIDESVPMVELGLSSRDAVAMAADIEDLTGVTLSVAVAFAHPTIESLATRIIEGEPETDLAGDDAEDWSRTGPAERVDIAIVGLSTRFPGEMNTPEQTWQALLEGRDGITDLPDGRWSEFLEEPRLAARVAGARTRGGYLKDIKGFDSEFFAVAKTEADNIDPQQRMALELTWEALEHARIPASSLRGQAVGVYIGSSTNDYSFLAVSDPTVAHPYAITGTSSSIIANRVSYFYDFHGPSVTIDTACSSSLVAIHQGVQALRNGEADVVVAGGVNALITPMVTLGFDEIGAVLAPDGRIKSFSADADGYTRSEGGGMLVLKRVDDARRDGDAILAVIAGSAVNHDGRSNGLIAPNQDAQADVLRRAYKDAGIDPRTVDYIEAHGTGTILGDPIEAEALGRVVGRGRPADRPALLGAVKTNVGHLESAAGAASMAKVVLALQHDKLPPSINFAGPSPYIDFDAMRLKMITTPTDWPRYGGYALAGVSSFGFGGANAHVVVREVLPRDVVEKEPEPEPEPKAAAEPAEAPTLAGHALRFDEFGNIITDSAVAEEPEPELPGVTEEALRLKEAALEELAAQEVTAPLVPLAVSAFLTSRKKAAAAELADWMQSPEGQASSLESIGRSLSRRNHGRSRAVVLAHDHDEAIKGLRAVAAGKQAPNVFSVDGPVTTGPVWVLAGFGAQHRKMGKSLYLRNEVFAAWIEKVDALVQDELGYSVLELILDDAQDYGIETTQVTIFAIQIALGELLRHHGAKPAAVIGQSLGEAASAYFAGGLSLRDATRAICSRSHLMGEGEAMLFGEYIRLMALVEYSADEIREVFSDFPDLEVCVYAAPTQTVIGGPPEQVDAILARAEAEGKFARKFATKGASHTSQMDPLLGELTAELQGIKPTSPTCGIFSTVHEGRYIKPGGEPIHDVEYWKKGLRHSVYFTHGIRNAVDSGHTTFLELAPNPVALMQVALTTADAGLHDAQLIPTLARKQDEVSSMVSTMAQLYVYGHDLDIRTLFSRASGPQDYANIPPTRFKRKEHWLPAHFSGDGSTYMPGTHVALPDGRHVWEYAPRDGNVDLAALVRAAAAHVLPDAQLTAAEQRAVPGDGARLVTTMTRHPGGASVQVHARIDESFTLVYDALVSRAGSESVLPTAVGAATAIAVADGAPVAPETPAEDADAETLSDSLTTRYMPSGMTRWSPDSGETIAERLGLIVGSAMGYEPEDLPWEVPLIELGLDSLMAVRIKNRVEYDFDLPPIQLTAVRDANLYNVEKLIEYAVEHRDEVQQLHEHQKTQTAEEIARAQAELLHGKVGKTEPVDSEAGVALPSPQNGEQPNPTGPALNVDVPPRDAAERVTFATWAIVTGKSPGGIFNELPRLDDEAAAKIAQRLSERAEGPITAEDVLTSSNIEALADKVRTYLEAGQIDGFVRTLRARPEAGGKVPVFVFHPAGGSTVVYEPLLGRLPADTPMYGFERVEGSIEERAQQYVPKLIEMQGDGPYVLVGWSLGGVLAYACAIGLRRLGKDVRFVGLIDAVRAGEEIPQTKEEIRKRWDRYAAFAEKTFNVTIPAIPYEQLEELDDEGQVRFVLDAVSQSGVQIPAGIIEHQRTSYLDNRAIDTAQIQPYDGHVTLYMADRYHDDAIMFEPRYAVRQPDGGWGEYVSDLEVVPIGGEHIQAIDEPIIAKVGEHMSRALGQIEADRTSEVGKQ
UniProt A4I591, 1-473: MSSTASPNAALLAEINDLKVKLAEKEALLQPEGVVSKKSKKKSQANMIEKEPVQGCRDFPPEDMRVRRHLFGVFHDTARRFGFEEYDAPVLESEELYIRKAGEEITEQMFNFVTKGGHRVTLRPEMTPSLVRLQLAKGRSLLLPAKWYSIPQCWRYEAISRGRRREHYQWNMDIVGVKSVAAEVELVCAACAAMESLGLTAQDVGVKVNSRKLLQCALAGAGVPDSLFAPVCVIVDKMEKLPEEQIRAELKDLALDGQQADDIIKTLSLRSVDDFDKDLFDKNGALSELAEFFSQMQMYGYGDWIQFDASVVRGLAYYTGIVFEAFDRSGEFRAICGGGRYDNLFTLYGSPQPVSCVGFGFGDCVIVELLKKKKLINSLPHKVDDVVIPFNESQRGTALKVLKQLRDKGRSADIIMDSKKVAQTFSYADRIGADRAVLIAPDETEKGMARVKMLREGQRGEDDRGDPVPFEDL
UniProt Q4DA54, 1-478: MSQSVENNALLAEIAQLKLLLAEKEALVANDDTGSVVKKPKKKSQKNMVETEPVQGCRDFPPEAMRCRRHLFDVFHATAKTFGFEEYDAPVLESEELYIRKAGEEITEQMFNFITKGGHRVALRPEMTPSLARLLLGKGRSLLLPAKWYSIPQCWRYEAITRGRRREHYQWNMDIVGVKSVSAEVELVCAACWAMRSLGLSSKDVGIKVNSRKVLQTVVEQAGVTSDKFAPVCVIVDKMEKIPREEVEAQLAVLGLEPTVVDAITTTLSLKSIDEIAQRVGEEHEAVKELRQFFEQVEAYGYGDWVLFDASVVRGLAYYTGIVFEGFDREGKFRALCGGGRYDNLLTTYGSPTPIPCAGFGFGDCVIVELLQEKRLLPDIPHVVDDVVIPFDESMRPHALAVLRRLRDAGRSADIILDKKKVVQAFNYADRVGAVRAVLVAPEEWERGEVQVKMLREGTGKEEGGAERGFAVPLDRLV

Each number is a percent effect as filed. The controls that fix the scale are not given in the record; negative values are as filed. This is an unselected part of the compounds tested.

MtTrpRS: 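Tryptophan-tRNA ligase, Mycobacterium tuberculosis (UniProt P9WFT3). Enzyme assay of tryptophanyl-tRNA synthetase; the read-out is not stated. Compounds at 10 µM. Direction is not recorded; retested compounds ran higher, which suggests that high means inhibition. Of about 65,000 compounds tested this way, about 64 (0.098%) reached 50% or more in at least one test.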
Pks13 thioesterase: 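Polyketide synthase Pks13, Mycobacterium tuberculosis (UniProt I6X8D2). Enzyme assay of the thioesterase domain of polyketide synthase 13; the read-out is not stated. Concentration: 30 µM. The record gives no direction; the compounds picked for IC50 retests had high values, so higher reads as stronger inhibition. Of about 67,000 compounds tested this way, about 300 (0.46%) reached 50% or more in at least one test.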
LiHisRS: 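Histidine-tRNA ligase, Leishmania infantum (UniProt A4I591). Enzyme assay of histidyl-tRNA synthetase; the read-out is not stated. Tested at 30 µM. Higher reads as stronger inhibition (inferred: compounds with an IC50 in retests scored well above the rest). The assay is labelled LdHisRS but filed under L. infantum. About 69,000 compounds were tested under these conditions; 0.6% (about 410) showed 50% or more at least once.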
TcHisRS: 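Enzyme assay of histidyl-tRNA synthetase; the read-out is not stated. Target: Histidine-tRNA ligase, Trypanosoma cruzi CL Brener (UniProt Q4DA54). Tested at 30 µM. Higher reads as stronger inhibition (inferred: compounds with an IC50 in retests scored well above the rest). Of about 69,000 compounds tested this way, about 31 (0.045%) reached 50% or more in at least one test.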

{"compound": "CC/C=C(\\C)CN1CCC(CNC(=O)c2ccnc(N)c2)C1", "stereo": "stereo not drawn", "MtTrpRS": 8.845, "Pks13 thioesterase": -25.3, "LiHisRS": 38.57, "TcHisRS": 1.064}
{"compound": "Cc1nc(N)ccc1CC1COc2ccccc2C1", "stereo": "stereo not drawn", "MtTrpRS": -0.4167, "Pks13 thioesterase": -16.41, "LiHisRS": 15.05, "TcHisRS": 1.554}
{"compound": "Cc1nc(C2CCCN(C(=O)CN3CCCC3=O)C2)sc1C", "stereo": "stereo not drawn", "MtTrpRS": -2.21, "Pks13 thioesterase": -2.669, "LiHisRS": 9.333, "TcHisRS": 4.046}
{"compound": "Cc1cc(CCC(=O)N(C)C)nc(C2CCCCN2)n1", "stereo": "stereo not drawn", "Pks13 thioesterase": 4.092, "LiHisRS": 16.49, "TcHisRS": 5.556}
{"compound": "CN(Cc1ccccc1)C(=O)Cn1nc(N2CCOCC2)ccc1=O", "MtTrpRS": 1.052, "Pks13 thioesterase": -19.07, "LiHisRS": 3.371, "TcHisRS": 0.5181}
{"compound": "O=C(NCC1CCOCC1)[C@@H]1C[C@@H]2CCN(Cc3ccco3)C[C@H]2O1", "MtTrpRS": 0.5247, "Pks13 thioesterase": -8.884, "LiHisRS": 11.32, "TcHisRS": 2.703}
{"compound": "CCc1nnc(C(C)N2CCN(CCC(=O)NC3CC3)CC2)o1", "stereo": "stereo not drawn", "MtTrpRS": 2.271, "Pks13 thioesterase": -2.589, "LiHisRS": -3.529, "TcHisRS": 3.015}
{"compound": "CN1CCCC(CCC(=O)N2CCc3[nH]c(-c4ccccc4)nc3C2)C1", "stereo": "stereo not drawn", "MtTrpRS": 1.351, "Pks13 thioesterase": -21.89, "LiHisRS": 14.52, "TcHisRS": 2.632}
{"compound": "CCOc1ccc(NC2CCN(CC(F)(F)F)C2=O)cc1C", "stereo": "stereo not drawn", "MtTrpRS": -2.282, "Pks13 thioesterase": 7.359, "LiHisRS": 16, "TcHisRS": 13.25}
{"compound": "CCN(CC)CC1CN(Cc2ccc(C)s2)Cc2nccn2C1", "stereo": "stereo not drawn", "MtTrpRS": 5.111, "Pks13 thioesterase": -23.14, "LiHisRS": 24.32, "TcHisRS": 0.4975}
{"compound": "CN(Cc1ccco1)[C@@H]1CN(Cc2cccs2)C[C@@H]2CCCO[C@@H]21", "MtTrpRS": 1.918, "Pks13 thioesterase": 1.175, "LiHisRS": 5.455, "TcHisRS": 9.091}
{"compound": "Cc1c(CN2CCC(C(=O)O)(n3cccn3)CC2)oc2ccccc12", "MtTrpRS": -5.49, "Pks13 thioesterase": -7.692, "LiHisRS": -2.41, "TcHisRS": 2.762}
{"compound": "COCCN1CCO[C@@H]2CN(Cc3ccccc3OC)C[C@@H]2C1", "MtTrpRS": -1.402, "Pks13 thioesterase": 6.836, "LiHisRS": 15.52, "TcHisRS": 7.595}
{"compound": "Cc1ccc(NCCNC(=O)C2Cc3cc(C)c(C)cc3O2)nn1", "stereo": "stereo not drawn", "MtTrpRS": -4.739, "Pks13 thioesterase": -6.076, "LiHisRS": 2.667, "TcHisRS": -1.63}
{"compound": "CCCN1CCC(CNC(=O)N2CCCC2c2c(C)n[nH]c2C)CC1", "stereo": "stereo not drawn", "MtTrpRS": -1.768, "Pks13 thioesterase": 6.589, "LiHisRS": 6.024, "TcHisRS": 3.659}
{"compound": "O=C(c1cnccn1)N1C[C@@H](c2ccccc2)[C@@]2(CCNC2=O)C1", "MtTrpRS": -5.933, "Pks13 thioesterase": -34.57, "LiHisRS": 20.69, "TcHisRS": 5.063}
{"compound": "CCn1nc(C)c(CNC(=O)NCC(C)(O)c2ccco2)c1C", "stereo": "stereo not drawn", "MtTrpRS": -0.3894, "Pks13 thioesterase": 15.83, "LiHisRS": -1.299, "TcHisRS": 0.4926}
{"compound": "O=C1CC2(CCN(c3nncs3)C2)CN1c1cccc(F)c1", "stereo": "stereo not drawn", "MtTrpRS": -9.71, "Pks13 thioesterase": -3.965, "LiHisRS": 20.83, "TcHisRS": 3.738}

The first 2 entries again:

Compound	MtTrpRS	Pks13 thioesterase	LiHisRS	TcHisRS
CC/C=C(\C)CN1CCC(CNC(=O)c2ccnc(N)c2)C1 (stereo not drawn)	8.845	-25.3	38.57	1.064
Cc1nc(N)ccc1CC1COc2ccccc2C1 (stereo not drawn)	-0.4167	-16.41	15.05	1.554